# Library screening results

Measurements from “University of Dundee, Small-Polar-MMV Screening Library” (2021), ChEMBL document CHEMBL3988442.

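Whole-cell assay for inhibitors of Mycobacterium tuberculosis growth, labelled Cornell in the record; the read-out is not stated. The concentration is filed as 10 mM, unlikely as a test dose, so the dose is not known. Higher means stronger inhibition (inferred from two other growth screens of the library). About 53,000 compounds were tested under these conditions; 1.7% (about 900) showed 50% or more at least once.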

Results are given as percent effect. The record does not define 0% and 100%; most values in the screen are far below 50% and negative numbers occur (in some assays of this library far below -100). This is an unselected part of the compounds tested.

CCOC(=O)CCC(=O)N1CC(c2nc(Cc3ccccc3)no2)C1 gave 20.91%. With [H][C@@]12CN(Cc3nccn3C)C(=O)N1CCN(S(=O)(=O)c1ccccc1)C2 the screen gave -11.04%. For Cc1cc(C(=O)NCC(C)N2CCc3ccccc32)no1 (stereo unspecified) the result was 14.7%. Result for COCC1CCCCN1C(=O)c1cc(-c2cccc(OC)c2)n[nH]1 (stereo unspecified) was 19.01%. Result for O=C(O)C(F)(F)F.O=C(O)C(F)(F)F.[H][C@@]12CN(Cc3cc[nH]n3)C[C@]1([H])OCCN2CC1CC1 was 4.885%. CC(C)CN1CCN(C)C2(CCN(Cc3ccsc3)CC2)C1=O.O=C(O)C(F)(F)F.O=C(O)C(F)(F)F read 7.131%.

With CC(C)S(=O)(=O)NCC1CCCN(C(=O)c2cccnc2)C1 (stereo unspecified) the screen gave -40.33%. Cc1nn(C)c(N2CCOCC2)c1CNC(c1ccccc1)C1CC1 (stereo unspecified) gave -5.193%. For O=C(O)C(F)(F)F.[H][C@@]12OCCN(C(=O)C3CCC3)[C@@]1([H])CC[C@H]2OCCCn1cccn1 the result was -19.02%. Cc1nn(C)c(C)c1CNC1CCOc2ccccc21 (stereo unspecified) gave 106.6%. For CS(=O)(=O)N1CCOCC2(CN(Cc3ccccn3)CCO2)C1.O=C(O)C(F)(F)F.O=C(O)C(F)(F)F (stereo unspecified) the result was -0.2764%. For c1cncc(OCc2nc(C3CC3)nn2-c2ccc3c(c2)OCCO3)c1 the result was 8.433%.

With CC(CNC1CCN(c2ccccn2)CC1)Oc1ccc(F)cc1 (stereo unspecified) the screen gave -30.58%. CCn1nc(C)cc1C(=O)NCc1nc(C)no1 read 2.745%. Cc1nc(C)c(CN2CCOC[C@H](Oc3ccc(S(C)(=O)=O)cc3)C2)s1 read 14%. Result for COC(=O)c1cc(OCC2CCC2)cc(C(=O)N[C@@H]2CCCNC2)c1 was 25.66%. COc1cc(N2CCCC3(CCN(c4cncnc4)C3=O)C2)ncn1 (stereo unspecified) gave 5.443%. Result for O=C(c1cccnc1O)N1CCCC2(C=Cc3ccccc3O2)CC1 (stereo unspecified) was 20.95%.

COc1c(C)cnc(CN(C)C(=O)c2cccc(NC(N)=O)c2)c1C read 25.72%. For O=C(O)C(F)(F)F.O=C(O)C(F)(F)F.[H][C@@]12CCCO[C@]1([H])[C@@H](NC(=O)c1cccnc1)CN2Cc1cccs1 the result was 17.44%. COc1ccc(NC2CCc3c2[nH]c(=O)n(C2CCCCC2)c3=O)cc1 (stereo unspecified) gave -32.61%. [H][C@@]12CCC(=O)N(CCCOC)[C@]1([H])CCN(c1ccc(C(N)=O)cn1)C2 gave -20.3%. Cc1nn(C)c(C)c1C1COCCN1C(=O)CSC(C)(C)C (stereo unspecified) read -1.216%. Result for CCn1cc(C(=O)N(C)[C@@H]2CC[C@@H](N3CCCC3)[C@@H]2O)c(C)n1 was -2.779%.

For Cc1nccn1Cc1nnc(C2CCN(c3ccncc3F)CC2)n1C the result was -21.49%. With CN(C)S(=O)(=O)N1CC(c2nc(-c3ccsc3)no2)C1 the screen gave 18.06%. CC(=O)c1ccc(N2CCCC(CO)(Cc3ccccc3F)C2)nc1 (stereo unspecified) read -1.378%. Result for CCN1CCC2(CCC1=O)CN(C1CCOCC1)CCN2C (stereo unspecified) was -42.07%. For Cc1cc(C(=O)NCC(c2ccsc2)N(C)C)no1 (stereo unspecified) the result was 30.71%. For Cc1ccc(S(N)(=O)=O)cc1C(=O)N1CCc2c(ncnc2N(C)C)C1 the result was -8.609%.

Result for O=C(O)C(F)(F)F.[H][C@@]12CCCO[C@]1([H])[C@@H](NC(=O)N(C)C)CN2Cc1ccc2c(c1)OCO2 was 21.01%. With Cc1oc(-c2cc(F)cc(F)c2)nc1CN1C[C@@H](C)NC[C@@H]1C the screen gave 2.574%. N#CCCN(C(=O)CCc1cscn1)c1ccc2c(c1)OCCO2 gave -24.71%. For CN1CCN2CCN(C(=O)c3cnn4cc(CCO)cnc34)CC2C1 (stereo unspecified) the result was -0.8981%. COc1ccc(CCNC(=O)NC2CC(=O)N(c3ccccc3)C2)cc1 (stereo unspecified) gave -37.9%. With Cc1cc(C)n(CC2CN(CCOc3ccc(C#N)cc3)CCO2)n1 (stereo unspecified) the screen gave 4.599%.

For CCc1nc(C)c([C@H]2CN(C)C[C@@H]2C(=O)Nc2ccccc2F)[nH]1 the result was 10.38%. CN(Cc1nccn1CC(F)(F)F)C(=O)c1ccc(F)c(F)c1 read -23.58%. With Cc1nnc2n1CCN(C(=O)c1cc(C)n(-c3ccccc3)c1C)C2 the screen gave -35.93%. With COCc1nc(CN2CCOC(CN(C)c3cccnn3)C2)cs1 (stereo unspecified) the screen gave -42.76%. For Cc1noc(C)c1CNC1CCN(c2ccccc2OC(F)F)C1 (stereo unspecified) the result was 17.01%. For CS(=O)(=O)CCC(=O)Nc1cc(Cl)c(Cl)cn1 the result was -14.91%.

For COc1c(CNCc2ccccc2Cn2ccnc2)c(C)nn1C the result was 24.8%. Result for COCCN1CCCCC12CC(=O)N(c1cccc(C#N)c1)C2.O=C(O)C(F)(F)F (stereo unspecified) was -13.26%. Cc1cc2[nH]c(O)nc2cc1NCc1ccccc1 gave 38.01%. Result for CN(C)C(=O)COCc1cncc2c1CCN(Cc1ccccn1)C2.O=C(O)C(F)(F)F.O=C(O)C(F)(F)F was 10.9%. With O=C(c1ncc[nH]1)N1CCC(n2cc(-c3ccccn3)nn2)CC1 the screen gave 20.36%. CN1CCN(Cc2cnc3n2CCN(C(=O)c2cscn2)C3)CC1 gave -15.3%.

With CCS(=O)(=O)NC(CCSC)C(=O)Nc1ccc(F)cc1 (stereo unspecified) the screen gave -17.02%. [H][C@@]12CS(=O)(=O)C[C@]1([H])N(C(=O)c1ccc3c(c1)ncn3C)CCN2CCO read -33.89%. For COc1ccccc1S(=O)(=O)CCOC(C)C the result was 28.54%. With COc1cc(N2CCC3(CCCN(Cc4ccccn4)C3)C2)ncn1.O=C(O)C(F)(F)F (stereo unspecified) the screen gave 12.86%. Result for CCn1c(N)nc2cc(C(=O)NCCc3ccccc3F)cnc21 was 11.3%. O=c1n(CCSCc2ccccc2Br)nc2ccccn12 gave -16.08%.

With CC(C)N(Cc1nc(-c2cccs2)no1)CC1CCC(=O)N1 (stereo unspecified) the screen gave -9.648%. CCn1cc(NC(=O)C2CCN(CC(=O)NC3CCCC3)CC2)cn1 read 1.052%.

For reference, 3 entries once more:

| SMILES | Percent Effect |
|---|---|
| `CN1CCN(Cc2cnc3n2CCN(C(=O)c2cscn2)C3)CC1` | -15.3 |
| `N#CCCN(C(=O)CCc1cscn1)c1ccc2c(c1)OCCO2` | -24.71 |
| `Cc1nnc2n1CCN(C(=O)c1cc(C)n(-c3ccccc3)c1C)C2` | -35.93 |